The values that follow come from paper PMC11087270, “CryoEM structures reveal how the bacterial flagellum rotates and switches direction” (Nature Microbiology, 2024).

Sequences of proteins named here, by UniProt entry; tags and fusion partners are left off. A change or cut given only in a name is not applied to a line headed by its entry.
UniProt P26418: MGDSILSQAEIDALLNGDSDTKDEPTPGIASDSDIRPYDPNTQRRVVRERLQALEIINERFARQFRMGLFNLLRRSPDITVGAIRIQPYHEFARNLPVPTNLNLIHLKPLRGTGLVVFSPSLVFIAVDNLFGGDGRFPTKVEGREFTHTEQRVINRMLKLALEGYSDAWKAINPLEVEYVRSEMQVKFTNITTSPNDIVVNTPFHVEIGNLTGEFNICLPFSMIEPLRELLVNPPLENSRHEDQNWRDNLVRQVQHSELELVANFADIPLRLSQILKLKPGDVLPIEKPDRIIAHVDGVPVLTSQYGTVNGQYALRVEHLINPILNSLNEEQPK

Results are given in words; binding and its absence hold for the method and conditions named. Binding can be weak; no strength is given.

Test [1] concerns the target FliM (S. enterica serovar typhimurium), C-ring switch subunit (S. enterica serovar typhimurium) (UniProt P26418). Description: cryo-EM structure; MSC-ring particles with FliG ΔPAA (CW pose); C34 symmetry applied, symmetry expansion and local refinement of three staves; 4.6 Å; both purified.
For test [2] the target is unchanged. Description: cryo-EM structure; wild-type MSC-ring particles (CCW pose); MS-ring or C-ring removed by particle subtraction; C-ring 34-mer at 4.0 Å (33-, 35-, 36-mer classes too), MS-ring 33-mer at 3.4 Å; both purified.

B1: FliN (S. enterica serovar typhimurium), C-ring switch subunit (natural protein, UniProt P26419 1-137, looked up)
chain: MSDMNNPSDENTGALDDLWADALNEQKATTTKSAADAVFQQLGGGDVSGAMQDIDLIMDIPVKLTVELGRTRMTIKELLRLTQGSVVALDGLAGEPLDILINGYLIAQGEVVVVADKYGVRITDIITPSERMRRLSR
notes: FliN, S. enterica serovar typhimurium, expressed from the fliN gene on plasmid pKLR3; residues 45/59/63-137 of the three non-equivalent copies modelled in the C-ring; no tag is told; also called FliNC; FliN1; source: E. coli BL21-Gold, coexpressed from plasmid pKLR3; MSC-ring particles partially purified by differential membrane extraction
On to B1, for which, in test [1], the binding result was “binds”.

B2: FliG (S. enterica serovar typhimurium), wild type, C-ring switch subunit (natural protein, UniProt P0A1J9 1-331, looked up)
chain: MSNLSGTDKSVILLMTIGEDRAAEVFKHLSTREVQALSTAMANVRQISNKQLTDVLSEFEQEAEQFAALNINANEYLRSVLVKALGEERASSLLEDILETRDTTSGIETLNFMEPQSAADLIRDEHPQIIATILVHLKRSQAADILALFDERLRHDVMLRIATFGGVQPAALAELTEVLNGLLDGQNLKRSKMGGVRTAAEIINLMKTQQEEAVITAVREFDGELAQKIIDEMFLFENLVDVDDRSIQRLLQEVDSESLLIALKGAEPPLREKFLRNMSQRAADILRDDLANRGPVRLSQVENEQKAILLIVRRLAETGEMVIGSGEDTYV
notes: FliG, S. enterica serovar typhimurium, expressed from the fliG gene on plasmid pKLR3; residues 1-331 modelled in the C-ring; no tag is told; also called FliGD1; FliGD2; source: E. coli BL21-Gold, coexpressed from plasmid pKLR3; MSC-ring particles partially purified by differential membrane extraction
For B2, the binding result in test [2] was “binds”.
